The exact form of at least one protein or probe is not confirmed. Where cells or extracts were used, other partners may take part.
Biological target: CREB (UniProt P16220)
Assay: EMSA, supershift, cold self-competition (50-fold)
Conditions: A549 nuclear extract, binding markedly increased in shHMGB1 versus shControl cells; 10 mM Tris pH 8.0, 150 mM KCl, 2 mM EDTA, 10 mM MgCl2, 10 mM DTT, 0.1% BSA, 20% glycerol, 1 ug poly(dI-dC), 4 ug nuclear protein, room temperature 50 min; protein in an extract; label: 3' biotin

By UniProt entry, the sequences of proteins in these tests, tags left out. Where a name states a change or a piece, a line headed by the entry shows the natural chain unless it says otherwise.
UniProt P16220: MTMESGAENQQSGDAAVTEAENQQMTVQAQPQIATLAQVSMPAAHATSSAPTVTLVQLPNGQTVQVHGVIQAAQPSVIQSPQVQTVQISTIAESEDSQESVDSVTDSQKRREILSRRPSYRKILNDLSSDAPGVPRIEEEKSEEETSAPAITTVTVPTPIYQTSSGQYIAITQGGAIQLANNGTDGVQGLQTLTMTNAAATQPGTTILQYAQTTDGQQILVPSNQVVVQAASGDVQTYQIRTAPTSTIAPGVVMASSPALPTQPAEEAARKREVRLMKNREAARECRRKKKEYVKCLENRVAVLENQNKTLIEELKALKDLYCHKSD

ACATGAATTTACGCAACAAAAATA (double strand) [CREB probe (nwasp promoter)]
binding result: binds

Source: article PMC4202136
